From PubChem BioAssay AID2685 (National Center for Advancing Translational Sciences (NCATS), 2010)
Some of the results follow. These are further read-outs of the screen, such as a control signal, another cell line or another target. No call is given for them. Compounds called inactive in the main read-out are mostly missing here. Words in brackets tell the shape of the fitted curve; partial curves, single points and poor fits give uncertain potencies.

Test: qHTS Assay for Lipid Storage Modulators in Drosophila S3 Cells;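 for cell number change: cells counted by Cell Tracker Red CMTPX staining in the red channel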
Conditions: BODIPY lipid droplet fluorescence, 18-24 h; for cell number change: measured here: cell count max response, cells fed with added oleic acid
Method in brief: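 Laser-scanning cytometry quantifies lipid droplet accumulation (500–530 nm total intensity; droplet/cell object ratio) in oleic acid-fed (400 uM added) Drosophila S3 cells treated with a concentration series. 20 uM Triacsin C defined 100% inhibition.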

[1] = measured here: cell number channel AC50, cells fed with added oleic acid
[2] = measured here: lipid fluorescence (Fed channel) AC50, cells fed with added oleic acid

Q: For `Cc1ccc(C)c(OCC(=O)OCC(=O)Nc2c(C)nn(-c3ccccc3)c2C)c1`, which cell number change is on record?
A: The cell number change was 8%.

Q: Which cell number change does the source give for `CCCSc1ncccc1C(=O)O` here?
A: Its cell number change is 3.96%.

Q: What about the AC50 [1] of the same compound?
A: The AC50 was 4.11 µM [falling, single point].

Q: What about the AC50 [2] of the same compound?
A: Its AC50 is 2.91 µM [falling, partial curve, poor fit].

Q: Which results are given for `COc1ccc(N2CCN(C(=O)COC(=O)c3ccc(C)o3)CC2)cc1`?
A: cell number change: 2.36%; AC50 [1]: 0.651 µM [falling, full curve, poor fit]

Q: Which AC50 [1] does the source give for `O=C(NCC1(N2CCOCC2)CCCCC1)c1cccc(S(=O)(=O)N2CCc3ccccc3C2)c1` here?
A: Its AC50 is 0.00517 µM [rising, full curve, poor fit].

Q: What about the AC50 [2] of the same compound?
A: Its AC50 is 0.00461 µM [rising, full curve, poor fit].

Q: Which cell number change does the source give for `CC1(C)CC(=O)/C(=C\c2cccc([N+](=O)[O-])c2)C(C)(C)N1` here?
A: The cell number change was -30.6%.

Q: What about the AC50 [1] of the same compound?
A: The AC50 was 23.1 µM [falling, partial curve].

Q: And the AC50 [2]?
A: Its AC50 is 6.51 µM [falling, full curve, poor fit].

Q: Which cell number change does the source give for `Cc1cccc(NC(=O)CSCc2nc3c(nnn3Cc3ccc(F)cc3)c(=O)[nH]2)c1C` here?
A: The cell number change was -26%.

Q: What about the AC50 [2] of the same compound?
A: Its AC50 is 16.4 µM [falling, single point].

Q: Which results are given for `O=C(c1ccc(Cl)cc1)c1cnc(-c2ccc(Cl)cc2)s1`?
A: cell number change: 19%; AC50 [1]: 7.31 µM [rising, partial curve, poor fit]

Q: For `COc1ccccc1NC(=O)c1ccc(NC(=O)CNC(=O)c2ccc(OC)c(OC)c2)cc1`, which cell number change is on record?
A: Its cell number change is -1.9%.

Q: With `CC1(C)Cc2c(cnn2-c2ccc(F)cc2)C(NC(=O)c2ccc(=O)oc2)C1` (stereo not given) as the compound, how does the cell number change read?
A: The cell number change was -5.2%.

Q: And the AC50 [2]?
A: The AC50 was 1.64 µM [falling, single point].

Q: What does the source list for `O=C(NC1CCCCC1)C(c1ccccc1)N1CCC2(CC1)OCCO2` (stereo not given)?
A: cell number change: 4.46%; AC50 [2]: 29.1 µM [rising, single point]

Q: Which results are given for `O=C(c1ccc(COc2ccccc2Br)cc1)N1CCCCCC1`?
A: cell number change: -39.7%; AC50 [1]: 29.1 µM [falling, single point]

Q: With `O=c1[nH]nc(Cc2ccc(-c3ccc(Cl)cc3)o2)c2ccccc12` as the compound, how does the cell number change read?
A: Its cell number change is -13%.

Q: What about the AC50 [2] of the same compound?
A: Its AC50 is 29.1 µM [falling, single point].

Q: Which results are given for `O=C(CNC(=O)c1ccc(Br)o1)NC12CC3CC(CC(C3)C1)C2`?
A: cell number change: 25.4%; AC50 [2]: 29.1 µM [rising, single point]

Q: With `CCN(CC)C(=O)c1sc(NC(=O)c2ccc(Br)o2)c(C(=O)OC)c1C` as the compound, how does the cell number change read?
A: The cell number change was 54.4%.

Q: And the AC50 [1]?
A: Its AC50 is 0.146 µM [rising, full curve, poor fit].

Q: What about the AC50 [2] of the same compound?
A: Its AC50 is 1.84 µM [rising, partial curve].

Q: With `O=C(NC1CC1)C1CCN(c2nc3ccccc3s2)CC1` as the compound, how does the cell number change read?
A: The cell number change was 19.7%.

Q: Which cell number change does the source give for `CCCNC(=O)c1ccc2c(=O)c(O)c(-c3cccc(Br)c3)[nH]c2c1` here?
A: The cell number change was -38.1%.

Q: And the AC50 [1]?
A: The AC50 was 16.4 µM [falling, partial curve].

Q: And the AC50 [2]?
A: The AC50 was 16.4 µM [falling, partial curve].

Q: For `O=C(CCc1ccc(S(=O)(=O)NC2CCCCC2)cc1)NCc1ccccc1`, which cell number change is on record?
A: The cell number change was 82.8%.

Q: What about the AC50 [1] of the same compound?
A: The AC50 was 9.2 µM [rising, partial curve].

Q: And the AC50 [2]?
A: Its AC50 is 16.4 µM [rising, partial curve].

Q: For `CCOc1ccc(NS(=O)(=O)c2ccc(NS(=O)(=O)c3cccs3)cc2)cc1`, which cell number change is on record?
A: The cell number change was -12.7%.

Q: And the AC50 [2]?
A: The AC50 was 14.6 µM [rising, partial curve].

Q: For `OCCN1CCN(c2ncnc3sc4c(c23)CCCC4)CC1`, which cell number change is on record?
A: Its cell number change is -13.7%.

Q: What does the source list for `COc1cccc(C2=CC(c3ccc(OC)c(OC)c3OC)n3nnnc3N2)c1` (stereo not given)?
A: cell number change: -55.8%; AC50 [1]: 0.0164 µM [falling, full curve, poor fit]; AC50 [2]: 1.3 µM [falling, full curve, poor fit]

Q: With `COc1cc(C)c(Cl)c(C)c1S(=O)(=O)NCc1ccc2c(c1)OCO2` as the compound, how does the cell number change read?
A: Its cell number change is 5.73%.

Q: What about the AC50 [2] of the same compound?
A: Its AC50 is 3.26 µM [rising, full curve].

Q: With `NC(=O)c1ccsc1NC(=O)COC(=O)Cc1ccccc1Cl` as the compound, how does the cell number change read?
A: Its cell number change is -7.83%.

Q: What about the AC50 [1] of the same compound?
A: Its AC50 is 0.13 µM [falling, full curve, poor fit].

Q: And the AC50 [2]?
A: The AC50 was 14.6 µM [falling, partial curve, poor fit].

Q: For `Cc1cccc(N2CCN(C(=O)CCCn3c(=O)[nH]c4ccsc4c3=O)CC2C)c1` (stereo not given), which cell number change is on record?
A: The cell number change was -4.96%.

Q: And the AC50 [2]?
A: The AC50 was 29.1 µM [falling, single point].

Q: Which cell number change does the source give for `O=C(Nc1cc(S(=O)(=O)N2CCCCC2)ccc1N1CCOCC1)c1ccc(C(F)(F)F)cc1` here?
A: Its cell number change is -1.8%.

Q: What about the AC50 [2] of the same compound?
A: Its AC50 is 0.082 µM [rising, full curve, poor fit].

Q: What does the source list for `O=C1CCCC2=C1C1(CCCCC1)N=C(Nc1nc3ccccc3s1)N2`?
A: cell number change: 1.79%; AC50 [2]: 0.366 µM [rising, partial curve, poor fit]

Q: What does the source list for `COc1cc(C(=O)O/N=C(\N)c2ccc([N+](=O)[O-])cc2)cc(OC)c1OC`?
A: cell number change: 26%; AC50 [2]: 18.4 µM [rising, single point]

Q: Which cell number change does the source give for `O=C(O)c1cc2ccc3ccccc3c2[nH]1` here?
A: Its cell number change is -0.395%.

Q: With `O=C(CN1C(=O)NC2(CCCC2)C1=O)NNC(=O)c1ccc(F)cc1` as the compound, how does the cell number change read?
A: The cell number change was -44.2%.

Q: And the AC50 [1]?
A: Its AC50 is 25.9 µM [falling, single point].

Q: What about the AC50 [2] of the same compound?
A: Its AC50 is 25.9 µM [falling, partial curve, poor fit].

Q: With `CC(=O)NC(=O)NC1OC(=O)C(Cl)=C1Cl` (stereo not given) as the compound, how does the cell number change read?
A: The cell number change was -0.339%.

Q: For `COc1ccc(CNC(=O)c2c(N)n(CCCN3CCOCC3)c3nc4ccccc4nc23)cc1`, which cell number change is on record?
A: The cell number change was -73.1%.

Q: And the AC50 [1]?
A: Its AC50 is 23.1 µM [falling, single point].

Q: What about the AC50 [2] of the same compound?
A: The AC50 was 6.51 µM [rising, single point].

Q: With `CC(=O)c1ccc(N2CCN(S(=O)(=O)c3cn(C)cn3)CC2)cc1` as the compound, how does the cell number change read?
A: Its cell number change is 2.14%.

Q: With `Fc1ccc(CCN2CCN=C2Nc2ccccc2)cc1` as the compound, how does the cell number change read?
A: Its cell number change is -8.96%.

Q: And the AC50 [2]?
A: Its AC50 is 0.291 µM [rising, partial curve, poor fit].

Q: For `COc1cc(C(=S)N2CCOCC2)ccc1O`, which cell number change is on record?
A: The cell number change was 14.6%.

Q: For `COc1ccc(NC(=O)c2cc3ccccc3cc2O)cc1`, which AC50 [2] is on record?
A: Its AC50 is 29.1 µM [falling, single point].

Q: What does the source list for `COC(=O)c1cc(NC(=O)c2c(Cl)cnn2C)cc(C(=O)OC)c1`?
A: AC50 [1]: 0.731 µM [rising, full curve, poor fit]; AC50 [2]: 29.1 µM [rising, single point]

Q: What does the source list for `CC(Oc1ccc(Br)cc1Br)C(=O)Nc1cccnc1Cl` (stereo not given)?
A: cell number change: -26.3%; AC50 [2]: 29.1 µM [falling, single point]

Q: What does the source list for `COc1ccc(NC(=O)/C(C#N)=C/c2c(C)nn(-c3ccc(F)cc3)c2Cl)cc1OC`?
A: cell number change: -32.2%; AC50 [1]: 32.6 µM [falling, single point]; AC50 [2]: 29.1 µM [falling, single point]
